Measurements reported in publication PMC10238091.
No constants are given. Whether binding was seen depends on the method and setting. Binding seen in cells or lysates may run through a third protein. Some binding calls cover weakened binding; strength is not graded here. Tags and fused reporters may be left off the sequences shown.

Amino acid sequences for entries named in this document (tags omitted).
UniProt Q9NVI1: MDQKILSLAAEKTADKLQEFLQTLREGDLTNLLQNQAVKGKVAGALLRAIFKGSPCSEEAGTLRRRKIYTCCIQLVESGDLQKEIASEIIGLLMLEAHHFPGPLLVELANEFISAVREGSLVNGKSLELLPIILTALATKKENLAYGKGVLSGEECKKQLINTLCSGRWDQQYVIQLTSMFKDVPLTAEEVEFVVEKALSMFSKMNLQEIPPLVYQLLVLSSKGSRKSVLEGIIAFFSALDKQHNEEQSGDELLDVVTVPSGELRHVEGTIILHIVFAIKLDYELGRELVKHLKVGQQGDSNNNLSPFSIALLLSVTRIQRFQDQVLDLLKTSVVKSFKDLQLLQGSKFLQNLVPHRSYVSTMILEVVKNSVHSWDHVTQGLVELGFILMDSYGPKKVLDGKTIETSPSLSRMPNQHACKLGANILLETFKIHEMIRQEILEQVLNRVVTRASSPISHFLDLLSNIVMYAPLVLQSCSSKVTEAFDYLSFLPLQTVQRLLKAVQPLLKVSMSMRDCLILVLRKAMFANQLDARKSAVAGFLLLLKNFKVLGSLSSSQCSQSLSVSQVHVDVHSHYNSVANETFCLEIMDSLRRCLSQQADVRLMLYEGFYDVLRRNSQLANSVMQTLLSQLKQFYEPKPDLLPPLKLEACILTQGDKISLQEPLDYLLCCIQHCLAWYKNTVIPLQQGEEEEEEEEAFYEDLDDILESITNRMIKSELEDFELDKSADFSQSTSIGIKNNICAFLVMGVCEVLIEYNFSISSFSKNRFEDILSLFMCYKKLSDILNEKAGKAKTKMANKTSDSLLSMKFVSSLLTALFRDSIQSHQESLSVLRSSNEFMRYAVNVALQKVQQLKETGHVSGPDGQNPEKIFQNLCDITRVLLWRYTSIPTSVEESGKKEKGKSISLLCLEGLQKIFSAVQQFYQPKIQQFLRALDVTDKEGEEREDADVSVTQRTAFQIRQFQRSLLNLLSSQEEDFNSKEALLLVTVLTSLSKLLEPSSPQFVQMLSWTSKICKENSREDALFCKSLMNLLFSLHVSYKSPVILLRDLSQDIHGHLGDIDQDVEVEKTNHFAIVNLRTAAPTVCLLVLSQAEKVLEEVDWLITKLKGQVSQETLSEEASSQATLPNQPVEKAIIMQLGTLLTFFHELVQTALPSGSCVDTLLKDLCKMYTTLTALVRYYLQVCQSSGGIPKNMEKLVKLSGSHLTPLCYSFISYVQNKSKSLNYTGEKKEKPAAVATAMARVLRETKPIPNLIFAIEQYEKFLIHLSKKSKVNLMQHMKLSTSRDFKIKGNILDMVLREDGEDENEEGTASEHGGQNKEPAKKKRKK
UniProt Q08945: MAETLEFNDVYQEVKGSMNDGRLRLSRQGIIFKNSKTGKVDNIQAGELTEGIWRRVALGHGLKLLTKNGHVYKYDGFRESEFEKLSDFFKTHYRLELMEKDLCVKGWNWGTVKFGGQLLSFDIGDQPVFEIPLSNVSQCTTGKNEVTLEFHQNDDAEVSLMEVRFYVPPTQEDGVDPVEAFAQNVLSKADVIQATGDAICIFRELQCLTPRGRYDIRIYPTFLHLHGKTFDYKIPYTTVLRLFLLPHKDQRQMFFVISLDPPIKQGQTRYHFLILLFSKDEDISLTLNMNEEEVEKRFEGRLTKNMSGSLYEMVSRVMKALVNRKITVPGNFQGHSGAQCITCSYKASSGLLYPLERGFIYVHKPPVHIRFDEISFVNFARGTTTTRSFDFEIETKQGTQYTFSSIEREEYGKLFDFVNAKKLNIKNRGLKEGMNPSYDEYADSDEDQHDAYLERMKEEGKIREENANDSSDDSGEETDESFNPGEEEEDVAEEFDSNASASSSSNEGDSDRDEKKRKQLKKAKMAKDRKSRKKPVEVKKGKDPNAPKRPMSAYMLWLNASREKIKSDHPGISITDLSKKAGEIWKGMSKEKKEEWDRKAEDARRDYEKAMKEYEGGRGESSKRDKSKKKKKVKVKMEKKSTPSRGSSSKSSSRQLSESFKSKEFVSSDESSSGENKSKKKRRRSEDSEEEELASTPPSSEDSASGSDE

T1: SA1 (Stromalin Antigen 1, STAG1) (human (endogenous in HCT116 and HeLa)) (UniProt Q8WVM7)
T1 sequence: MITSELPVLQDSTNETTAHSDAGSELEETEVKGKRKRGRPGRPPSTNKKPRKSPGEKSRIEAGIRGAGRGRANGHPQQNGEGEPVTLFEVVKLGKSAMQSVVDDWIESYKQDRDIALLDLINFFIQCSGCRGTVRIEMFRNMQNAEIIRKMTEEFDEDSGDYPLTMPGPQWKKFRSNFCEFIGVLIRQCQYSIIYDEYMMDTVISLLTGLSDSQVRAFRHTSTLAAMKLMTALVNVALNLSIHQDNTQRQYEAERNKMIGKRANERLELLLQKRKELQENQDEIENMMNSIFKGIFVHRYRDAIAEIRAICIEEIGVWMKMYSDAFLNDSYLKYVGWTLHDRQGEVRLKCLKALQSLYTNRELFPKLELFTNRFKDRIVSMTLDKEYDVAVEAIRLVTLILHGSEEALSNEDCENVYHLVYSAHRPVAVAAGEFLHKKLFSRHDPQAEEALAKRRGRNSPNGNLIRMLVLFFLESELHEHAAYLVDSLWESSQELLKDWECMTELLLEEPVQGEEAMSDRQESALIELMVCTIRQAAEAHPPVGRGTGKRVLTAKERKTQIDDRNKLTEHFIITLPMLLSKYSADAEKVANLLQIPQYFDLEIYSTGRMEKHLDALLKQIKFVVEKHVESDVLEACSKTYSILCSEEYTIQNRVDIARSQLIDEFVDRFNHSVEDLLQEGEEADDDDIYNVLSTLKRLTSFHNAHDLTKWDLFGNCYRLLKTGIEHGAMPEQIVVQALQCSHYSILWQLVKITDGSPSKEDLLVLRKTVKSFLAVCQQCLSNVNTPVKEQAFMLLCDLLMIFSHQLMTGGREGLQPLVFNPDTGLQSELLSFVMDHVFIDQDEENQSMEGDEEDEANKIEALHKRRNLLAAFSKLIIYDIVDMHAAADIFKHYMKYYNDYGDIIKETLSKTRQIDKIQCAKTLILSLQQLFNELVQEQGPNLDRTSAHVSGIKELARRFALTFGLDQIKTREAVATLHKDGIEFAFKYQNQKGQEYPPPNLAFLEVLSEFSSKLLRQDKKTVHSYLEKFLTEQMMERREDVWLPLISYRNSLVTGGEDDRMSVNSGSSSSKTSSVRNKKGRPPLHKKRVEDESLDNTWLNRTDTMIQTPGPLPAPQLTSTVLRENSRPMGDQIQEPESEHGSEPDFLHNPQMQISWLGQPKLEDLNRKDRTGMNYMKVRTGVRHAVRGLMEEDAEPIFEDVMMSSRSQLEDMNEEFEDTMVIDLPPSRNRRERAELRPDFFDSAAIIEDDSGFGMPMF


molecular target: T1, SA1 (Stromalin Antigen 1, STAG1) (human (endogenous in HCT116 and HeLa)); assay: co-IP; chromatin co-IP of endogenous proteins from RAD21mAC HCT116 cells treated with EtOH (control) or IAA 4 h (RAD21 degraded); antibody on Protein A/G Dynabeads, 1 mg benzonase-treated chromatin extract, about 16 h at 4 °C, washes at 200 mM KCl; immunoblot

| binding | Molecule |
| --- | --- |
| binds | FANCI (from UniProt Q9NVI1 1-1328) |
| binds | SSRP1 (from UniProt Q08945 1-709) |
| binds | FTSJ3 (protein, UniProt Q8IY81 1-847) MGKKGKVGKSRRDKFYHLAKETGYRSRSAFKLIQLNRRFQFLQKARALLDLCAAPGGWLQVAAKFMPVSSLIVGVDLVPIKPLPNVVTLQQDITTERCRQALRKELKTWKVDVVLNDGAPNVGASWVHDAYSQAHLTLMALRLACDFLARGGSFITKVFRSRDYQPLLWIFQQLFRRVQATKPQASRHESAEIFVVCQGFLAPDKVDSKFFDPKFAFKEVEVQAKTVTELVTKKKPKAEGYAEGDLTLYHRTSVTDFLRAANPVDFLSKASEIMVDDEELAQHPATTEDIRVCCQDIRVLGRKELRSLLNWRTKLRRYVAKKLKEQAKALDISLSSGEEDEGDEEDSTAGTTKQPSKEEEEEEEEEQLNQTLAEMKAQEVAELKRKKKKLLREQRKQRERVELKMDLPGVSIADEGETGMFSLSTIRGHQLLEEVTQGDMSAADTFLSDLPRDDIYVSDVEDDGDDTSLDSDLDPEELAGVRGHQGLRDQKRMRLTEVQDDKEEEEEENPLLVPLEEKAVLQEEQANLWFSKGSFAGIEDDADEALEISQAQLLFENRRKGRQQQQKQQLPQTPPSCLKTEIMSPLYQDEAPKGTEASSGTEAATGLEGEEKDGISDSDSSTSSEEEESWEPLRGKKRSRGPKSDDDGFEIVPIEDPAKHRILDPEGLALGAVIASSKKAKRDLIDNSFNRYTFNEDEGELPEWFVQEEKQHRIRQLPVGKKEVEHYRKRWREINARPIKKVAEAKARKKRRMLKRLEQTRKKAEAVVNTVDISEREKVAQLRSLYKKAGLGKEKRHVTYVVAKKGVGRKVRRPAGVRGHFKVVDSRMKKDQRAQQRKEQKKKHKRK |
| binds | ESYT2 (protein, UniProt A0FGR8 1-921) MTANRDAALSSHRHPGCAQRPRTPTFASSSQRRSAFGFDDGNFPGLGERSHAPGSRLGARRRAKTARGLRGHRQRGAGAGLSRPGSARAPSPPRPGGPENPGGVLSVELPGLLAQLARSFALLLPVYALGYLGLSFSWVLLALALLAWCRRSRGLKALRLCRALALLEDEERVVRLGVRACDLPAWVHFPDTERAEWLNKTVKHMWPFICQFIEKLFRETIEPAVRGANTHLSTFSFTKVDVGQQPLRINGVKVYTENVDKRQIILDLQISFVGNCEIDLEIKRYFCRAGVKSIQIHGTMRVILEPLIGDMPLVGALSIFFLRKPLLEINWTGLTNLLDVPGLNGLSDTIILDIISNYLVLPNRITVPLVSEVQIAQLRFPVPKGVLRIHFIEAQDLQGKDTYLKGLVKGKSDPYGIIRVGNQIFQSRVIKENLSPKWNEVYEALVYEHPGQELEIELFDEDPDKDDFLGSLMIDLIEVEKERLLDEWFTLDEVPKGKLHLRLEWLTLMPNASNLDKVLTDIKADKDQANDGLSSALLILYLDSARNLPSGKKISSNPNPVVQMSVGHKAQESKIRYKTNEPVWEENFTFFIHNPKRQDLEVEVRDEQHQCSLGNLKVPLSQLLTSEDMTVSQRFQLSNSGPNSTIKMKIALRVLHLEKRERPPDHQHSAQVKRPSVSKEGRKTSIKSHMSGSPGPGGSNTAPSTPVIGGSDKPGMEEKAQPPEAGPQGLHDLGRSSSSLLASPGHISVKEPTPSIASDISLPIATQELRQRLRQLENGTTLGQSPLGQIQLTIRHSSQRNKLIVVVHACRNLIAFSEDGSDPYVRMYLLPDKRRSGRRKTHVSKKTLNPVFDQSFDFSVSLPEVQRRTLDVAVKNSGGFLSKDKGLLGKVLVALASEELAKGWTQWYDLTEDGTRPQAMT |
